Measurements as given in publication PMC4383706 (Cancer prevention research (Philadelphia, Pa.), 2015).
“And” between values parts separate entries of the source, which are not always exact repeats. Equal values may be shown once. Read-outs that look alike come from different tables or passages of the source.

Experiments:
[1] = NPX 40 mg/Kg BW gavage, serum
in vivo = conditions: female, Fischer-344, rat, serum, po, 40 mg/kg

COc1ccc2cc([C@H](C)C(=O)O)ccc2c1 [NPX, naproxen]
AUC ([1]; 14 Day (14 consecutive days)): 847,418 hrxng/ml | AUC ([1]; 24 hour (1 day) time point): 686,277 hrxng/ml | Vd ([1]; 24 hour (1 day) time point): 0.255 L/kg | Cmax (in vivo): ~300 µM and 71300 ng/mL | Cmax at 14 days (in vivo): 66.6 µg/mL | Tmax (in vivo): 2 h | Tmax at 14 days (in vivo): 2 h
